Source: PubChem BioAssay AID2517 (National Center for Advancing Translational Sciences (NCATS), 2010)
In all, about 350,000 compounds went through this assay and about 1,200 (0.34%) were called active. Inconclusive results, whose numbers are uncertain, are shown with a selection of clear calls. Calls follow the shape of the dose curve; as a rule, active = well fitted inhibition curve with a large enough effect; inconclusive = small, poorly fitted or top-dose-only effect; inactive = no such curve, though single readings can be large or run the other way. Potencies beside an inconclusive call are fits to weak or partial responses and may not hold up.

The chains behind the UniProt entries cited, without tags or fusion partners.
UniProt P27695, whole entry, looked up: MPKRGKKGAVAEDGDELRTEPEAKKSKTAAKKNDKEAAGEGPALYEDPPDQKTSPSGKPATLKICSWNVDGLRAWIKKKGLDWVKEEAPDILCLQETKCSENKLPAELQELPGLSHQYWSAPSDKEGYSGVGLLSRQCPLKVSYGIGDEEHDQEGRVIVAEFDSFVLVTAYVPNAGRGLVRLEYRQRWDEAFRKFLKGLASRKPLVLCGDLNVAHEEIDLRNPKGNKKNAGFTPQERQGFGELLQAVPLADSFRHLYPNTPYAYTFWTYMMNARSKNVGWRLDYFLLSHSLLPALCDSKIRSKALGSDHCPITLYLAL

target: DNA repair nuclease/redox regulator APEX1 (Homo sapiens) (UniProt P27695); assay: qHTS Assay for Inhibitors of the Human Apurinic/apyrimidinic Endonuclease 1 (APE1); conditions: recombinant APE1, TAMRA/BHQ-2 abasic DNA cleavage fluorescence; series mostly up to 65.8 µM; also: nearly all actives have a fitted effect of over 55% in size
Summary of the method: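 Step 1: APE1 (0.75 nM) with compound, 15 min RT. Step 2: add 50 nM fluorophore/quencher THF duplex. Step 3: three fluorescence reads 60 s apart (525/598 nm); read 3 minus read 1 = reaction progress.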
Potency is read from the fitted curve at half-maximal effect.

SMILES	Potency
Nc1ccc(-c2nc3ccc(N)cc3s2)cc1	inactive
O=C1/C(=C/c2ccccc2)Oc2ccccc21	inconclusive: 3.55 µM [inhibitor, single point]
CCOc1ccc(NS(=O)(=O)c2ccc(SC)cc2)cc1	inconclusive: 0.224 µM [inhibitor, full curve, poor fit]
CCCOc1c(Cl)cc(C(=O)Nc2ccc3c(c2)OCO3)cc1OCC	inconclusive: 3.16 µM [inhibitor, single point]
COc1ccc(C(=O)COC(=O)c2sc(C)nc2C)cc1Cl	inactive
CC(Oc1ccc(O)cc1)(P(=O)(O)O)P(=O)(O)O	inconclusive: 3.16 µM [inhibitor, full curve]
CN(C)c1ccc2nc3c(=O)[nH]c(=O)nc-3n(CC(O)C(O)C(O)CO)c2c1 (stereo not given)	inconclusive: 26.7 µM [inhibitor, single point]
Cc1ccccc1Nc1scc(-c2ccc(Cl)cc2)[n+]1-c1ccccc1C	inconclusive: 44.7 µM [inhibitor, single point]
Cc1ccc(C(C)C)cc1OCCCCN1CCCC1	inconclusive: 39.8 µM [inhibitor, single point]
Cc1nn(-c2ccccc2)c(C)c1C=O	inactive
CC(C)Nc1nnc(SCC(=O)Nc2ccc3c(c2)C(=O)c2ccccc2C3=O)s1	inconclusive: 12.6 µM [inhibitor, single point]
O=C(Cn1c(-c2ccccc2)c[n+]2ccsc12)c1ccc(Br)cc1	inconclusive: 100 µM [inhibitor, partial curve]
COc1cc(NC(=O)c2ccc(Cl)cc2Cl)ccc1-c1cc2ccccc2oc1=O	inconclusive: 0.891 µM [inhibitor, full curve, poor fit]
ON=C1c2cc(OCCN3CCCCC3)ccc2-c2ccc(OCCN3CCCCC3)cc21	inconclusive: 26.7 µM [inhibitor, single point]
CC(C)[C@H](NC(=O)OC(C)(C)C)c1nnc(SCC(=O)Nc2ccc(Br)cc2)o1	inconclusive: 39.8 µM [inhibitor, single point]
Cc1c(C(=O)OCCOC(C)C)[nH]c2c1C(=O)CC(c1ccco1)C2 (stereo not given)	inconclusive: 22.4 µM [inhibitor, partial curve]
CC(C)CSc1n[nH]c(N)n1	inactive
C=CCN(C(=O)CSC1=NC(=O)CN1C(C)=O)c1nc(C)c(-c2ccccc2)s1	inconclusive: 44.7 µM [inhibitor, single point]
C=CCn1c2ccccc2c2nnc(SCN3C(=O)c4ccccc4C3=O)nc21	inconclusive: 1.12 µM [inhibitor, full curve, poor fit]
Cc1ccc(S(=O)(=O)NCCC(=O)Nc2ccc(Cl)c(Cl)c2)cc1	inconclusive: 31.6 µM [inhibitor, single point]
CCc1nc(SCC(=O)N2CCOCC2)c2c(=O)n(C)c(=O)n(C)c2n1	inconclusive: 44.7 µM [inhibitor, single point]
COC(=O)c1c(-c2ccc(OC)cc2)sc2ccc(OC)cc12	inactive
Cc1ccc(-n2c(-c3ccccc3)c[n+]3c2CCC3)cc1	inconclusive: 8.91 µM [inhibitor, single point]

Reformatted with bars between the fields: part of the list above
SMILES | Potency
CCCOc1c(Cl)cc(C(=O)Nc2ccc3c(c2)OCO3)cc1OCC | inconclusive: 3.16 µM [inhibitor, single point]
CC(Oc1ccc(O)cc1)(P(=O)(O)O)P(=O)(O)O | inconclusive: 3.16 µM [inhibitor, full curve]
Cc1c(C(=O)OCCOC(C)C)[nH]c2c1C(=O)CC(c1ccco1)C2 (stereo not given) | inconclusive: 22.4 µM [inhibitor, partial curve]

Following part

SMILES	Potency
COc1ccc(/C=C/C(=O)Nc2ccc(-n3nncc3-c3ccccc3)cc2)cc1OC	inconclusive: 31.6 µM [inhibitor, single point]
COCCn1c(SCC(=O)Nc2ccccc2)nc2c(oc3ccccc32)c1=O	inconclusive: 5.01 µM [inhibitor, partial curve]
COn1c(=S)[nH]c2ccccc2c1=O	inconclusive: 2.24 µM [inhibitor, single point]
COc1cccc(OC)c1OCCN1CCCC1	inactive
Cc1ccc(C(=O)C2=C(O)C(=O)N(Cc3ccco3)C2c2cccc(Br)c2)o1 (stereo not given)	inactive
CCCn1c(-c2ccc(F)cc2)nc2c(NC3CCN(Cc4ccccc4)C3)nc(C)nc21 (stereo not given)	inactive
Cc1ccc(OCCCC(=O)Nc2nc3ccccc3[nH]2)cc1	inconclusive: 25.1 µM [inhibitor, single point]
Nc1c(C(=O)OCC2CCCO2)c2nc3ccccc3nc2n1C1CCCC1 (stereo not given)	inconclusive: 7.94 µM [inhibitor, partial curve, poor fit]
COc1ccc(OC)c(-c2csc(N(Cc3ccco3)C(=O)c3ccco3)n2)c1	inconclusive: 17.8 µM [inhibitor, partial curve]
CCS(=O)(=O)N1Cc2ccccc2CC1C(=O)Nc1ncc(C)s1 (stereo not given)	inactive
O=C(O)c1ccccc1-c1c2cc(I)c(=O)c(I)c-2oc2c(I)c(O)c(I)cc12	active: 25.1 µM
CN(Cc1ccc(F)cc1)C(=O)c1ccc(NC(=O)CC2SC(N3CCCC3)=NC2=O)cc1 (stereo not given)	inactive
Oc1sc(C=Nc2ccccc2)c2ccccc12	inconclusive: 7.94 µM [inhibitor, single point]
O=S1(=O)C2CC3C=CC2(O3)C(O)C(Cc2ccccc2)N1Cc1cccc(F)c1 (stereo not given)	inactive
O=C(O)C1Cc2ccccc2CN1S(=O)(=O)c1ccccc1 (stereo not given)	inactive
CCOc1cc(/C=C(/NC(C)=O)C(=O)O)cc(Cl)c1OCc1cccc(Br)c1	inactive
COc1ccc(CCn2c(C)cc(C(=O)CSc3nnnn3C)c2C)cc1	inconclusive: 39.8 µM [inhibitor, single point]
O=C(NCCF)[C@H]1C[C@@H]1[C@H](NP(=O)(c1ccccc1)c1ccccc1)c1ccccc1	inconclusive: 5.01 µM [inhibitor, single point]
NC(=O)Cc1ccc(C(=O)c2ccc(F)cc2)s1	inconclusive: 28.2 µM [inhibitor, single point]
Cc1cccc(NC(=S)NNC(=O)c2cc3c(s2)CCC(C)C3)c1C (stereo not given)	inconclusive: 39.8 µM [inhibitor, single point]
Cc1ccccc1CSc1nnc(NC(=O)Cc2cccs2)s1	inconclusive: 31.6 µM [inhibitor, single point]
O=C(Cn1c(=O)c2c(ncn2C2CCCC2)n(Cc2ccccc2)c1=O)N1CCc2ccccc21	inconclusive: 31.6 µM [inhibitor, single point]
